In doi:10.1101/2025.09.08.674928:
Results are given in words; binding and its absence hold for the method and conditions named. In cells and extracts the contact can be indirect. Here binding means that the protein was enriched with, or labelled near, the bait; the list need not be complete.

Biological target: SARS-CoV-2 Nsp3 (from virus infection) (SARS-CoV-2) (UniProt P0DTD1)
Assay: affinity purification with mass spectrometry

B1: transketolase (TKT) (enzyme, UniProt P29401 1-623)
chain: MESYHKPDQQKLQALKDTANRLRISSIQATTAAGSGHPTSCCSAAEIMAVLFFHTMRYKSQDPRNPHNDRFVLSKGHAAPILYAVWAEAGFLAEAELLNLRKISSDLDGHPVPKQAFTDVATGSLGQGLGAACGMAYTGKYFDKASYRVYCLLGDGELSEGSVWEAMAFASIYKLDNLVAILDINRLGQSDPAPLQHQMDIYQKRCEAFGWHAIIVDGHSVEELCKAFGQAKHQPTAIIAKTFKGRGITGVEDKESWHGKPLPKNMAEQIIQEIYSQIQSKKKILATPPQEDAPSVDIANIRMPSLPSYKVGDKIATRKAYGQALAKLGHASDRIIALDGDTKNSTFSEIFKKEHPDRFIECYIAEQNMVSIAVGCATRNRTVPFCSTFAAFFTRAFDQIRMAAISESNINLCGSHCGVSIGEDGPSQMALEDLAMFRSVPTSTVFYPSDGVATEKAVELAANTKGICFIRTSRPENAIIYNNNEDFQVGQAKVVLKSKDDQVTVIGAGVTLHEALAAAELLKKEKINIRVLDPFTIKPLDRKLILDSARATKGRILTVEDHYYEGGIGEAVSSAVVGEPGITVTHLAVNRVPRSGKPAELLKMFGIDRDAIAQAVRGLITKA
- binding: binds
